For this assay, the target named is T1, Drosophila Parkin (Drosophila (endogenous in adult flies)) (UniProt Q7KTX7).
T1 sequence: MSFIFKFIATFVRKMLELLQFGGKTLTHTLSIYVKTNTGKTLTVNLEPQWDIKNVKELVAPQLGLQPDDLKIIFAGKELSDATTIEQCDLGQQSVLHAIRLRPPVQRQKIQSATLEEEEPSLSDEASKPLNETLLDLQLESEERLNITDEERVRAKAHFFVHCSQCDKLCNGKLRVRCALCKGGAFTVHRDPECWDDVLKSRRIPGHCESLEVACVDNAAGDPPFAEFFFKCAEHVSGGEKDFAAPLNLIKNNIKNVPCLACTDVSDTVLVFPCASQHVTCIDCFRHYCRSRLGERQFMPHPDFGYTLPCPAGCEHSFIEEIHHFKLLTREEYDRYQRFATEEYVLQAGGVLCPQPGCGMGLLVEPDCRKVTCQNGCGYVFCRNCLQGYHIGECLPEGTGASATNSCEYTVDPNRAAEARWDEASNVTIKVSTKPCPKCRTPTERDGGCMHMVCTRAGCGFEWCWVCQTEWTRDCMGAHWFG
The assay can be described thus: co-IP; affinity purified anti-Parkin antiserum used to immunoprecipitate Parkin from lysate of wt adult flies (park^25 null mutants as control); blot with anti-dMfn antiserum; lysis buffer 50 mM Tris-HCl pH 7.4, 150 mM NaCl, 1% NP-40, 10% glycerol; overnight at 4°C, Protein G Sepharose.

For one molecule, binding results are on record in publication PMC2850930.

Results are given in words; binding and its absence hold for the method and conditions named. Binding seen in cells or lysates may run through a third protein. Some results given as binding are weak or reduced against the parent protein; the word gives no strength. Where a sequence is shown, tags or fusion partners need not be part of it.

B1: Drosophila Mitofusin (dMfn) (protein, UniProt Q7YU24 1-810)
chain: MAAYLNRTISMVTGQTGPADDDRHASSTDTVDKSGPGSPLSRFNSSLQQSGSTMAANLLPESRLYQSNDKSPLQIFVRAKKKINDIYGEIEEYVHETTTFINALHAEAEIVDKAERELFESYVYKVAAIREVLQRDHMKVAFFGRTSNGKSSVINAMLREKILPSGIGHTTNCFCQVEGSNGGEAYLMTEGSEEKLNVVNIKQLANALCQEKLCESSLVRIFWPRERCSLLRDDVVFVDSPGVDVSANLDDWIDNHCLNADVFVLVLNAESTMTRAEKQFFHTVSQKLSKPNIFILNNRWDASANEPECQESVKSQHTERCIDFLTKELKVSNEKEAAERVFFVSARETLQARIEEAKGNPPHMGAIAEGFQIRYFEFQDFERKFEECISQSAVKTKFQQHSSRGKSVSGDMKSMLDNIYERITIFRNLKQDQKNLLTERIQGTETQMMQVTREMKMKIHNMVEEVEEKVSKALNEEIWRLGVLIDEFNMPFHPERLVLNIYKKELNAHVESGLGSNLRARLSMALAMNVESAQTEMTDRMHALVPNEQLLATSTKMVVRTQPFEMLYSLNCQNLCADFQEDLEFKFSWGIAAMIQRFTGKVRERSKKGQPALVNRQSSIGHSVSTPTTTPVEATPVCLLPAPVVAGITPEQLSLISRFAVSSIGSQGTVGGLVVAGVMLKTIGWRVLVGVGALYGCIYLYERLSWTNSAKERTFKSQYVRHATKKLKMIVDLTSANCSHQVQQELSSTFARLCRTVDTATTDMNDELKTLDSQLNILEANQKQLKLLRNKANYIQNELDIFEHNYISPQ
Take B1: the binding entry is “binds”.
